## Percent effect of library compounds

From ChEMBL document CHEMBL3988442, “University of Dundee, Small-Polar-MMV Screening Library” (2021).

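Assay of Toxoplasma gondii numbers, read through their beta-galactosidase reporter with a colour substrate. Tested at 50 µM. Higher reads as fewer parasites (inferred from which compounds were picked for retests). Of about 18,000 compounds tested this way, about 170 (0.94%) reached 50% or more in at least one test.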

The filed quantity is “Percent Effect” (%). How 0% and 100% were set is not recorded. Most values in the screen are low, and negative values occur. This is an unselected part of the compounds tested.

* CN1CCOCC1C(=O)NCCCNc1ccccc1 (configuration not stated) : -0.2165%
* CN(c1ccc(O)cc1)S(=O)(=O)c1ccco1 : -4.3%
* COC(=O)C(CN)c1ccc(Cl)cc1 (configuration not stated) : 4.433%
* CCCc1ccc(C(=O)N[C@@H]2CCOC[C@H]2O)cc1 : 64%
* COC1CCN(CC(=O)Nc2ccc(C(N)=O)cc2)C1 (configuration not stated) : -13.26%
* Cc1nnc(SC(C#N)C2CCCCC2)n1CC(N)=O (configuration not stated) : 9.62%
* Cn1nnnc1SCc1cc(Cl)c2c(c1)OCCO2 : -8.816%
* O=C(NCC1CCCO1)c1cnn2cccnc12 (configuration not stated) : -4.539%
* NC(=O)C1CCN(S(N)(=O)=O)CC1 : -5.379%
* Cc1c(Br)cccc1CC(=O)NC1CCC(=O)NC1 (configuration not stated) : 2.553%
* O=C(C1CCCC1)N1CCN(C(=O)C2CCCO2)CC1 (configuration not stated) : 12.56%
* CC(=O)Nc1ccc(F)c(C(=O)N2CCCCO2)c1 : -8.314%
* O=C(CCc1cc(Cl)no1)N1CC[C@H]2CNC[C@H]21 : 36.88%
* CCOc1cc(Cl)ccc1CN : 10.87%
* O=C(c1ccncc1C(F)(F)F)N1CC[C@@H](CO)C1 : -0.5007%
* OCCn1cnc(Br)n1 : 0.785%
* OC1CNCCNC1 : 8.856%
* CC(=O)c1cc[nH]c(=O)c1 : 14.08%
* CCN(CC(=O)NC(N)=O)Cc1ccc2c(c1)OCO2 : 1.822%
* Cc1noc(C)c1CN1CCCC(C(N)=O)C1 (configuration not stated) : -14.54%
* Cc1cc(NC(C)CO)nc2ccccc12 (configuration not stated) : -2.533%
* CS(=O)(=O)CCN1CCSC2(CCCCC2)C1 : 0.3053%
* NC(=O)CCNC(=O)CCOc1ccccc1 : 12.47%
* CC(C)(C)NC(=O)N1CCCC1(C)CO (configuration not stated) : -4.907%
* NCCNC(=O)c1ccc(-c2ccc(Cl)cc2)s1 : 89.1%
* Brc1cncc(C2CNCCO2)c1 (configuration not stated) : -22.26%
* COC(=O)CSc1ccccc1C(=O)OC : 5.314%
* c1cncc(CN2CCC(OC3CCOCC3)CC2)c1 : 25.12%
* CC(=O)NC(C(N)=O)c1nnc(-c2ccccc2)o1 (configuration not stated) : 3.052%
* N#Cc1c(CCCN)nn(-c2ccccc2)c1N : -3.232%
* NCCC(=O)Nc1ccccc1 : 99.48%
* CCC(CC)(CO)NC(=O)NCCN1CCCCC1C (configuration not stated) : -11.98%
* CCc1cccc(S(=O)(=O)N2CC[C@H](N)C2)c1 : -1.633%
* CC(C)(C)OC(=O)N1C[C@@H]2[C@@H](N)[C@@H]2C1 : -15.68%
* CN(CCCNC(=O)C1CNCCO1)c1ccccc1 (configuration not stated) : -7.75%
* COc1ccc(NC(=O)C(C)S(C)(=O)=O)cn1 (configuration not stated) : -32.1%
* O=C(CCN1CCC(CO)CC1)Nc1ccc(Cl)cc1 : 1.681%
* CN(C)C1(CNC(=O)Cc2cccnc2)CCOCC1 : 8.796%
* CCc1noc(C(C)NC(=O)c2cccnc2C)n1 (configuration not stated) : -4.369%
* CCC(NC(=O)CNC(C)=O)c1ncnn1CC (configuration not stated) : 2.756%
* O=C(CCc1cccnc1)Nc1ncccc1Br : 1.266%
* N#CCS(=O)(=O)NCc1ccc(F)cc1 : -0.1082%
* Cn1nccc1[C@H]1[C@H](N)CC(=O)N1C1CC1 : -3.574%
* CC1CCCN1S(=O)(=O)N1CC(N2CCNC2=O)C1 (configuration not stated) : -4.226%
* Cc1cc(=O)cc(C(=O)N2CCC3(CCNCC3)C2)o1 : -3.702%
* COCCN1CCCN(C(=O)c2cnc(C)cn2)CC1 : -9.702%
* CN1CCCC(C(=O)NCCCn2ccnn2)C1 (configuration not stated) : 5.15%
* CC(C)(C)OC(=O)Nc1ccc(NC(=O)C2CC2)cn1 : 31.84%

Repeated from the top, 6 entries:

CN1CCOCC1C(=O)NCCCNc1ccccc1 (configuration not stated) read -0.2165%.
CN(c1ccc(O)cc1)S(=O)(=O)c1ccco1 read -4.3%.
COC(=O)C(CN)c1ccc(Cl)cc1 (configuration not stated) read 4.433%.
CCCc1ccc(C(=O)N[C@@H]2CCOC[C@H]2O)cc1 read 64%.
COC1CCN(CC(=O)Nc2ccc(C(N)=O)cc2)C1 (configuration not stated) read -13.26%.
Cc1nnc(SC(C#N)C2CCCCC2)n1CC(N)=O (configuration not stated) read 9.62%.